Test system: SARS-CoV-2 clinical isolates D614G
Format: cell-based

## Clc1ccc2c(c1)CCc1cccnc1C2=C1CCNCC1 [Desloratadine]
  IC50: 5.75 µM
